According to PubChem BioAssay AID330 (DTP/NCI, 2004):
The list does not hold the whole screen: it gathers tests that were run many times, whatever their T/C, doses with no T/C, and many T/C values between a quarter and a half above the control. Further doses and runs are listed elsewhere. T/C: endpoint of the treated group in % of that of the vehicle group. Some entries give survivors of the animals treated and no T/C: the source files T/C as zero there, which appears to mark a toxic dose or a test without result, not a measured value. Some doses without a T/C left all or most animals alive at the check, yet need not have been tolerated: survival well below the control is almost never listed, so the zero probably covers shortened survival too. Survivors were counted at the toxicity check, usually on the fifth day, unless a day is given; later deaths do not show. Schedule codes are those of the source, read here as Q, the interval in days (D) or hours (H), X, the number of doses. Some entries were tested several times; the results are listed from low to high. For survival time, the PubChem record calls one and a half times the control and up active, and a quarter to a half above the control has no call in these data; cut-offs in other NCI protocols can differ.

Test system: P388 leukemia ip, CD2F1 mice, survival T/C
Assay: NCI In Vivo Anticancer Drug Screen. Data for tumor model P388 Leukemia (intraperitoneal) in CD2F1 (CDF1) mice
Details: T/C endpoint: median survival time, higher T/C = longer survival
[1] = dose: 100.0 mg/kg/injection, schedule: Q04DX003 (ip), vehicle: saline with Tween-80
[2] = dose: 200.0 mg/kg/injection, schedule: Q04DX003 (ip), vehicle: saline with Tween-80
[3] = dose: 400.0 mg/kg/injection, schedule: Q01DX001 (ip), vehicle: Klucel (hydroxypropylcellulose) (HPC)

In the case of `[I][Hg][CH2]C1COCC([CH2][Hg][I])O1.[I][Hg][CH2]C1COCC([CH2][Hg][I])O1` (stereo unspecified), the survivor count (dose: 50.0 mg/kg/injection, schedule: Q04DX003 (ip), vehicle: saline with Tween-80) was 1 of 6, the survivor count [1] was 0 of 6 and the survivor count [2] was 0 of 6.
For `CCc1nnc2c(c(=O)n(C)c(=O)n2C)[n+]1[O-]`, the survivor count (dose: 200.0 mg/kg/injection, schedule: Q01DX001 (ip), vehicle: Klucel (hydroxypropylcellulose) (HPC)) was 0 of 6 and the survivor count [3] was 1 of 6.
In the case of `NC(=O)NC(=O)C(Cc1ccc(Cl)cc1)c1ccccc1` (stereo unspecified), the survivor count (dose: 60.0 mg/kg/injection, schedule: Q01DX005 (ip), vehicle: saline with Tween-80) was 6 of 6 and the survivor count (dose: 120.0 mg/kg/injection, schedule: Q01DX005 (ip), vehicle: saline with Tween-80) was 6 of 6.
For `C=C(C)C(=O)Nc1ccc(NC(C)C)cc1`, the survivor count (dose: 100.0 mg/kg/injection, schedule: Q01DX009 (ip), vehicle: saline with Tween-80) was 2 of 6 and 3 of 6 and the survivor count (dose: 200.0 mg/kg/injection, schedule: Q01DX009 (ip), vehicle: saline with Tween-80) was 1 of 6.
With `Cc1ccc2c(ccc(CC(=S)[S-])[n+]2C)c1` the T/C (dose: 50.0 mg/kg/injection, schedule: Q01DX009 (ip), vehicle: Klucel (hydroxypropylcellulose) (HPC)) was 126 % of control, the T/C (dose: 100.0 mg/kg/injection, schedule: Q01DX009 (ip), vehicle: Klucel (hydroxypropylcellulose) (HPC)) was 130 and 140 % of control and the survivor count (dose: 200.0 mg/kg/injection, schedule: Q01DX009 (ip), vehicle: Klucel (hydroxypropylcellulose) (HPC)) was 0 of 6 and 6 of 6.
In the case of `CCC(=O)OCc1c(-c2ccccc2)nc2sccn12`, the survivor count (dose: 100.0 mg/kg/injection, schedule: Q01DX001 (ip), vehicle: Klucel (hydroxypropylcellulose) (HPC)) was 4 of 6 and the survivor count [3] was 2 of 6.
With `[C-]#Cc1ccccc1.[C-]#Cc1ccccc1.[Cu+2]` the survivor count [1] was 1 of 6, the survivor count [2] was 1 of 6 and the survivor count (dose: 400.0 mg/kg/injection, schedule: Q04DX003 (ip), vehicle: saline with Tween-80) was 0 of 6.
`C=C1C(=O)C23OC2C1CCC(=O)C1(C)CC[C@H](OC(C)=O)C(C)(C)[C@H]1CC3=O` (stereo partly specified) was tested, and the survivor count (dose: 20.0 mg/kg/injection, schedule: Q01DX005 (ip), vehicle: Klucel (hydroxypropylcellulose) (HPC)) was 0 of 6.
`C[CH2][Pb]([CH2]C)([CH2]C)[N]1C(=O)c2ccccc2C1=O` was tested, and the survivor count (dose: 6.25 mg/kg/injection, schedule: Q01DX009 (ip), vehicle: Klucel (hydroxypropylcellulose) (HPC)) was 6 of 6, the survivor count (dose: 12.5 mg/kg/injection, schedule: Q01DX009 (ip), vehicle: Klucel (hydroxypropylcellulose) (HPC)) was 0 of 6 and the survivor count (dose: 25.0 mg/kg/injection, schedule: Q01DX009 (ip), vehicle: Klucel (hydroxypropylcellulose) (HPC)) was 0 of 6.
